The whole screen tested about 390,000 compounds, of which about 4,000 (1%) were called active. The inconclusive results got no clear call from the source; some entries with a clear call stand among them for comparison. The call rests on the fitted dose curve; in most records, active means well fitted inhibition curve with a large enough effect; inconclusive means small, poorly fitted or top-dose-only effect, or another doubt; inactive means no such curve, though single readings can be large or run the other way. Where the call is inconclusive, the potency comes from a doubtful curve fit.
The molecules below were run against DNA polymerase iota (Homo sapiens) (UniProt Q9UNA4) (assay: qHTS for Inhibitors of Polymerase Iota). Settings: Pol iota fluorescent replication assay, 10 min; series mostly up to 115 µM.
Summary of the method: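 Fluorescent replication assay read twice, at 0 min and 10 min after adding 50 nM (final) substrate. Enzyme (10 nM) and compounds were first incubated 15 min at room temperature; enzyme-free buffer wells were negative controls.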
Potency means the concentration at half of the fitted maximal effect.

Chains of the proteins cited; added tags and fusions are not shown. Lines headed by an entry give the natural chain unless they say otherwise; changes in a name come on top.
UniProt Q9UNA4: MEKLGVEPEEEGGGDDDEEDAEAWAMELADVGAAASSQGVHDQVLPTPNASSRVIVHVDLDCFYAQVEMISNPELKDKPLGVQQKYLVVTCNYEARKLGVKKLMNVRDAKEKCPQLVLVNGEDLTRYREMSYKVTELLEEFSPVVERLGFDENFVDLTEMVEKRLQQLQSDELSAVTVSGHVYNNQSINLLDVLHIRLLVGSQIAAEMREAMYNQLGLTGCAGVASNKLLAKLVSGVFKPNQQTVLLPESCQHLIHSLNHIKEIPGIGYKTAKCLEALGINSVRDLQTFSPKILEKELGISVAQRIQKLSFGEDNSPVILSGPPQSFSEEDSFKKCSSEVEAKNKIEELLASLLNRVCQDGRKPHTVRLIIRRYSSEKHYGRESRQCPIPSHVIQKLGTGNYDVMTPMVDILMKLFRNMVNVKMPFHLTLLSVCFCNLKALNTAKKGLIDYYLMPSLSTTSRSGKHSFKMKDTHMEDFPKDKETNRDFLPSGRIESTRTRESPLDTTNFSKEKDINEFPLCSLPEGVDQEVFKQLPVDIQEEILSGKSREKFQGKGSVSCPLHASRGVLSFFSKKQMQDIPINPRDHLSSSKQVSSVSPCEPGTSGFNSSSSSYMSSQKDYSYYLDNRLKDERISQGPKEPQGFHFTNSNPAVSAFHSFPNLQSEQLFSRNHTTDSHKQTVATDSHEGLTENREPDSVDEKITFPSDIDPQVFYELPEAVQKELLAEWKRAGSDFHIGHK

**Q.** How did the Potency turn out when `Cc1cc(C)cc(C(=O)N/N=C/c2ccoc2)c1` was run?
**A.** Its Potency is inconclusive: 56.2 µM [inhibitor, partial curve, poor fit].

**Q.** Which Potency does the source give for `O=C(Nc1ccc(O)cc1)c1ccc(NC(=O)c2ccco2)cc1` here?
**A.** The Potency was inconclusive: 79.4 µM [inhibitor, partial curve].

**Q.** For `Cc1onc(-c2ccc(F)cc2F)c1C(=O)Nc1cccc(C(F)(F)F)c1`, which Potency is on record?
**A.** Its Potency is inconclusive: 89.1 µM [inhibitor, single point].

**Q.** How did the Potency turn out when `COc1ccc(N2CSC3=C(C#N)C(c4cc(OC)ccc4OC)CC(=O)N3C2)c(OC)c1` (configuration not stated) was run?
**A.** The Potency was inconclusive: 0.708 µM [inhibitor, full curve, poor fit].

**Q.** `Cc1nccn1CCCN1C(=O)OC2(CCCCC2)C1(C)O` (configuration not stated) was tested. Which Potency did it give?
**A.** The Potency was inconclusive: 10 µM [inhibitor, partial curve, poor fit].

**Q.** How did the Potency turn out when `Cc1nc(C)c(-c2csc(Nc3ccc(S(N)(=O)=O)cc3)n2)s1` was run?
**A.** Its Potency is “inactive”.

**Q.** `CC(=O)OCC1=C(C(=O)OC(C)(C)C)N2C(=O)[C@@H](NC(=O)Cc3ccccc3)[C@H]2SC1` was tested. Which Potency did it give?
**A.** The Potency was active: 31.6 µM.

**Q.** With `CC(=O)/C=C/c1ccccc1Oc1c(F)c(F)nc(F)c1F` as the molecule, how does the Potency read?
**A.** The Potency was inconclusive: 10 µM [inhibitor, full curve, poor fit].

**Q.** How did the Potency turn out when `O=C(Cn1ccc(C(F)(F)F)n1)Nc1ccc(S(=O)(=O)NCc2ccco2)cc1` was run?
**A.** The Potency was inconclusive: 39.8 µM [inhibitor, partial curve, poor fit].

**Q.** `CCc1ccc(CNC(=O)c2cc(-c3ccc(Br)s3)nc3ccccc23)cc1` was tested. Which Potency did it give?
**A.** Its Potency is inconclusive: 89.1 µM [inhibitor, single point].

**Q.** For `CCOC(=O)C(Sc1nnc2c3ccccc3n(CC)c2n1)C(=O)OCC`, which Potency is on record?
**A.** Its Potency is inconclusive: 25.1 µM [inhibitor, single point].

**Q.** With `O=c1cc(-c2ccccc2)c2cc(Cl)c3c(c2o1)CN(Cc1ccccc1)CO3` as the molecule, how does the Potency read?
**A.** Its Potency is “inactive”.

**Q.** How did the Potency turn out when `O=C(N/N=C/c1cccnc1)c1cc(-c2ccccc2OCc2ccccc2)n[nH]1` was run?
**A.** Its Potency is “inactive”.

**Q.** `COc1ccccc1-c1cc(C(F)(F)F)nc(S(=O)(=O)CCCC(=O)Nc2cc(OC)c(OC)c(OC)c2)n1` was tested. Which Potency did it give?
**A.** Its Potency is inconclusive: 25.1 µM [inhibitor, full curve, poor fit].

**Q.** With `N#Cc1ccccc1S(=O)(=O)N1CCN(C(=O)Cc2coc3cc(O)ccc23)CC1` as the molecule, how does the Potency read?
**A.** The Potency was inconclusive: 100 µM [inhibitor, single point].

**Q.** With `COc1ccc(OC)c(NC(=O)CN2C(=O)c3ccccc3Sc3ccc(C(=O)N4CCCC4)cc32)c1` as the molecule, how does the Potency read?
**A.** The Potency was inconclusive: 56.2 µM [inhibitor, partial curve, poor fit].

**Q.** `COC(=O)[C@H](CC(C)C)NC(=O)Cn1cnc2c(NCc3ccccc3)ncnc21` was tested. Which Potency did it give?
**A.** Its Potency is “inactive”.
